One sequence from article doi:10.1101/2022.06.09.495453 can be followed below.

Amino acid sequences for entries named in this document (tags omitted).
UniProt Q9UI95, whole entry: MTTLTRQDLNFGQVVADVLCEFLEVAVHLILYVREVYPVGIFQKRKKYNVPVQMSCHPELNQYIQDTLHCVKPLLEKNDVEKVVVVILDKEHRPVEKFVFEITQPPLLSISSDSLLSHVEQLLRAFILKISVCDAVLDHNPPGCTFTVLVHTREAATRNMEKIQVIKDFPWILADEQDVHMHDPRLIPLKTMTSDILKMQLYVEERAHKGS

No signal at the amounts used counts as a negative. At least one verdict was read from the data and is not stated in words by the source.

In this series the target is REV7 (human) (UniProt Q9UI95). Briefly: fluorescence anisotropy. As to conditions: 20 uM protein; residues 1-211. (In general: In fluorescence polarisation assays a small probe gives low polarisation when free and higher when bound to something large.)

For the sequence “AGTGCCAGTGCC [ssDNA non-telomeric 12-mer]”, the binding result is listed as “no binding”.
